The campaign covered roughly 360,000 compounds. About 7,500 (2.1%) were called active. This list was built around the results that the source calls inconclusive (neither active nor inactive); the mix of calls is not that of the screen. The call rests on the fitted dose curve; in most records, active means well fitted inhibition curve with a large enough effect; inconclusive means small, poorly fitted or top-dose-only effect, or effect the other way; inactive means flat fitted curve, though single readings scatter. Where the call is inconclusive, the potency comes from a doubtful curve fit.
assay: Nrf2 qHTS screen for inhibitors; details: A549 ARE-Fluc reporter, luciferase luminescence, 18-24 h; series mostly up to 46 µM; further: nearly all actives have a fitted effect of over 60% in size
Outline: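 Quantitative HTS in A549 cells stably bearing an antioxidant response element-firefly luciferase construct. Inhibition of Nrf2-driven transcription was scored by luminescence after 18-24 h of compound exposure at 37 °C.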
Potency means the concentration at half of the fitted maximal effect.

| Compound | Potency |
| --- | --- |
| COc1ccc(-c2cc(C(=O)NC3=NCCS3)c3ccccc3n2)cc1OC | inconclusive: 1.84 µM [activator, full curve] |
| CC(C)(C)S(=O)(=O)/C(C#N)=C/Nc1ccccn1 | inconclusive: 13 µM [falling, single point] |
| Cc1cc(SCC(=O)c2ccccc2)nc(C)n1 | inconclusive: 16.4 µM [activator, single point] |
| Cc1c(C(=O)N(CCO)Cc2ccccc2)oc2c(F)cccc12 | inconclusive: 8.2 µM [activator, partial curve] |
| CCCCn1c(=O)n(-c2cc(OC)ccc2OC)c(=O)c2c3c(sc21)CN(C(C)=O)CC3 | inactive |
| Cc1cc(Nc2cccc(Cl)c2)nc2ccc(NC(=O)c3cncc(Br)c3)cc12 | active: 18.4 µM |
| Clc1cccc(CSc2nnc(-c3c[nH]c4ccccc34)o2)c1 | inconclusive: 23.1 µM [activator, partial curve, poor fit] |
| COc1ccc(S(=O)(=O)N2CCOCC2)cc1NC(=O)CCNC(=O)c1ccc(Cl)cc1 | inconclusive: 7.31 µM [falling, partial curve] |
| COc1ccc(C2=CCCCCC2)c(OC)c1OC | inactive |
| Cc1oc(-c2ccccc2Cl)nc1CS(=O)(=O)CC(=O)NCc1ccc(F)cc1 | inactive |
| Cc1ccccc1OCC(O)CN1CCN(c2ccc(Cl)cc2)CC1 (centres undefined) | inconclusive: 11.6 µM [falling, partial curve, poor fit] |
| O=C(Nc1ccccc1F)N(CCCN1CCOCC1)Cc1cc2cc3c(cc2[nH]c1=O)OCCO3 | inconclusive: 0.82 µM [activator, full curve] |
| COc1ccc(C(NC(=O)/C=C/c2ccco2)c2ccc(OC)c(OC)c2)cc1OC | inactive |
| Cc1ccc(C)c(N2CCN(C(=S)Nc3ccc4nc(N5CCOCC5)cc(C)c4c3)CC2)c1 | inconclusive: 4.61 µM [activator, partial curve, poor fit] |
| Cc1c(-c2nc(-c3ccc(C(C)(C)C)cc3)no2)n(C)oc1=O | inconclusive: 5.8 µM [activator, partial curve] |
| Cc1cccc(C(=O)Nc2ccnc(-c3ccncc3)n2)c1 | active: 2.59 µM |
| COc1cccc(OCCCCSc2ncccn2)c1 | inconclusive: 0.651 µM [activator, full curve] |
| CC(=O)Oc1cc(OC(C)=O)c2c(=O)c(-c3ccc4c(c3)OCCCO4)c(C)oc2c1 | inconclusive: 29.1 µM [activator, single point] |
| O=C(NCCCNC(=O)c1ccc(Cl)cc1Cl)c1ccccn1 | inconclusive: 13 µM [falling, single point] |
| COc1ccc(C(=O)Nc2cccc(-c3nnc(-c4ccco4)o3)c2)cc1 | inconclusive: 29.1 µM [falling, single point] |
| O=C(CNC(=O)c1ccccn1)N=Nc1c(O)[nH]c2ccccc12 | inconclusive: 3.66 µM [activator, partial curve] |
| CCn1cc([N+](=O)[O-])c(C(=O)N2N=C(c3cccc4ccccc34)CC2c2ccccc2O)n1 (centres undefined) | inconclusive: 35.5 µM [falling, single point] |

Given with tabs: part of the list above.
Compound	Potency
Cc1oc(-c2ccccc2Cl)nc1CS(=O)(=O)CC(=O)NCc1ccc(F)cc1	inactive
Cc1ccccc1OCC(O)CN1CCN(c2ccc(Cl)cc2)CC1 (centres undefined)	inconclusive: 11.6 µM [falling, partial curve, poor fit]
O=C(Nc1ccccc1F)N(CCCN1CCOCC1)Cc1cc2cc3c(cc2[nH]c1=O)OCCO3	inconclusive: 0.82 µM [activator, full curve]
COc1ccc(C(NC(=O)/C=C/c2ccco2)c2ccc(OC)c(OC)c2)cc1OC	inactive
Cc1ccc(C)c(N2CCN(C(=S)Nc3ccc4nc(N5CCOCC5)cc(C)c4c3)CC2)c1	inconclusive: 4.61 µM [activator, partial curve, poor fit]
Cc1c(-c2nc(-c3ccc(C(C)(C)C)cc3)no2)n(C)oc1=O	inconclusive: 5.8 µM [activator, partial curve]
Cc1cccc(C(=O)Nc2ccnc(-c3ccncc3)n2)c1	active: 2.59 µM
COc1cccc(OCCCCSc2ncccn2)c1	inconclusive: 0.651 µM [activator, full curve]
CC(=O)Oc1cc(OC(C)=O)c2c(=O)c(-c3ccc4c(c3)OCCCO4)c(C)oc2c1	inconclusive: 29.1 µM [activator, single point]
O=C(NCCCNC(=O)c1ccc(Cl)cc1Cl)c1ccccn1	inconclusive: 13 µM [falling, single point]
COc1ccc(C(=O)Nc2cccc(-c3nnc(-c4ccco4)o3)c2)cc1	inconclusive: 29.1 µM [falling, single point]
O=C(CNC(=O)c1ccccn1)N=Nc1c(O)[nH]c2ccccc12	inconclusive: 3.66 µM [activator, partial curve]

Following part:

| Compound | Potency |
| --- | --- |
| O=C1CCCC2=C1C1(CCOCC1)N=C(Nc1nc3ccccc3o1)N2 | inconclusive: 2.31 µM [falling, single point] |
| CCCc1nnc(NC(=O)c2nc(SCC)ncc2Cl)s1 | inactive |
| Cc1ccc(NC(=O)Nc2ccc3c(c2)nc(C)n3C)cc1 | inconclusive: 0.58 µM [activator, partial curve, poor fit] |
| CSc1nc(-c2ccccc2)cn1-c1ccc(NC(C)=O)cc1 | inconclusive: 1.84 µM [activator, partial curve, poor fit] |
| COc1ccc(-c2nnc(SCC(=O)NCCC(C)C)nc2-c2ccc(OC)c(OC)c2)cc1OC | inconclusive: 6.51 µM [falling, full curve, poor fit] |
| COc1ccccc1N1CCN(C(=O)CCCN2C(=O)c3cccc4cccc(c34)C2=O)CC1 | inconclusive: 18.4 µM [falling, partial curve, poor fit] |
| CCO[C@H]1OC(C(=O)N2CCN(Cc3ccccc3)CC2)=C[C@@H](c2ccccc2)[C@@H]1CCCO | inactive |
| Cc1ccc(C2C(C(=O)c3cccs3)=C(O)C(=O)N2c2nnc(C)s2)cc1 (centres undefined) | inconclusive: 1.84 µM [falling, full curve, poor fit] |
| COC(=O)c1cc2oc(C)cc2n1CC(=O)Nc1ccc(C(C)C)cc1 | inconclusive: 29.1 µM [activator, single point] |
| CCc1cccc(C)c1NC(=O)Cn1nc(C)n2cccc2c1=O | inconclusive: 9.2 µM [activator, partial curve] |
| COc1ccc(C2c3c(N)nc(Cc4ccccc4)nc3Oc3ccc4ccccc4c32)cc1OC (centres undefined) | inconclusive: 29.1 µM [falling, single point] |
| COc1cc(C(=O)Nc2nc(-c3ccc(Cl)cc3)c(C)s2)ccc1OCC(=O)Nc1ccc(F)cc1 | active: 20.6 µM |
| O=C(/C=C/c1ccco1)Nc1ccc2c(c1)OCO2 | inconclusive: 3.66 µM [activator, full curve] |
| Cc1ccc(N2CCN(CC(O)COc3ccc([N+](=O)[O-])cc3)CC2)cc1 (centres undefined) | inconclusive: 18.4 µM [activator, single point] |
| COCC(C)NC(=O)CCS(=O)(=O)c1nc(-c2ccc(OC)cc2)cc(C(F)(F)F)n1 (centres undefined) | inactive |
| O=C(COC(=O)CC1CCS(=O)(=O)C1)Nc1ccc(F)cc1 (centres undefined) | inconclusive: 4.11 µM [activator, full curve, poor fit] |
| CC1CCN(C(=O)CCC(=O)Nc2nnc(C(F)(F)F)s2)CC1 | inconclusive: 8.2 µM [falling, partial curve, poor fit] |
| CCOC(=O)c1cccc(NC(=O)C2CCCN(S(=O)(=O)c3c(C)n[nH]c3C)C2)c1 (centres undefined) | inconclusive: 16.4 µM [falling, partial curve] |
| Cc1cc(C)c2c(N)c(C(=O)Nc3nccs3)sc2n1 | inconclusive: 23.1 µM [activator, partial curve, poor fit] |
| CCOc1ccc(NC(=O)CCSc2nc3c(c(CC)c2C#N)C(=O)CC(C)(C)C3)cc1 | inconclusive: 16.4 µM [falling, single point] |
| Cc1csc(NC(=O)c2cn3ccccc3n2)n1 | inconclusive: 14.6 µM [falling, single point] |
| C=CCOC(=O)C1=C(C)NC(C)=C(C(=O)OCC=C)C1c1ccc(C)o1 | inconclusive: 18.4 µM [falling, partial curve, poor fit] |

| Compound | Potency |
| --- | --- |
| CCOC(=O)C1=C(CN2CCN(c3ccccc3OC)CC2)NC(=O)NC1c1ccccc1 (centres undefined) | inconclusive: 29.1 µM [falling, single point] |
| O=C(CN1CCCN(Cc2ccccc2F)S1(=O)=O)Nc1ccc(F)c(Cl)c1 | inactive |
| CCOC(=O)c1csc(CCNC(=O)c2oc3c(Cl)cc(C)cc3c2C)n1 | inconclusive: 20.6 µM [activator, single point] |
| COc1ccc(C(C)(C)C)cc1NC(=O)C1CC(=O)N(C2CCCC2)C1 (centres undefined) | inconclusive: 3.66 µM [falling, partial curve, poor fit] |
| CCOC(=O)c1ccc2c(c1)nc(C)n2CC | inconclusive: 9.2 µM [activator, partial curve, poor fit] |
| O=C(OCCN1C(=O)c2ccccc2C1=O)Oc1ccccc1 | inconclusive: 23.1 µM [activator, single point] |
| O=C(Nc1cccc(C(F)(F)F)c1)c1cnn(-c2cccc(F)c2)c1C1CCNCC1 | inconclusive: 25.9 µM [activator, partial curve, poor fit] |
| COc1ccc(C(=O)CSc2nnc(CCc3ccccc3)n2-c2ccccc2)cc1 | inconclusive: 20.6 µM [falling, single point] |
| O=C(CN1CCOCC1)N/N=C/c1c(O)ccc2ccccc12 | inconclusive: 20.6 µM [falling, single point] |
| O=C(CCNC(=O)c1ccc([N+](=O)[O-])cc1)NC1CCCc2ccccc21 (centres undefined) | inconclusive: 23.1 µM [activator, single point] |
| COc1ccc(C(O)P(=O)(O)CCc2ccccc2)cc1 (centres undefined) | inconclusive: 4.11 µM [falling, single point] |
| CC1Cc2ccccc2N1C(=O)CSc1nc2ccc(NC(=O)COc3ccccc3)cc2s1 (centres undefined) | inconclusive: 4.61 µM [falling, partial curve, poor fit] |
| CC1=C(C(=O)NCc2cccc(F)c2)C2(CCCCC2)OC1=O | inconclusive: 29.1 µM [activator, single point] |
| COc1ccc(CCn2c(S)nc3ccccc3c2=O)cc1 | inconclusive: 29.1 µM [falling, partial curve, poor fit] |
| COC(=O)c1ccc(CN2C(=O)NC3(CCCCC3)C2=O)cc1 | inconclusive: 2.59 µM [activator, partial curve, poor fit] |
| CCOC(=O)C(C)Sc1ccc2nnc(CCNS(=O)(=O)c3ccc(C)cc3)n2n1 (centres undefined) | inconclusive: 11.6 µM [activator, partial curve, poor fit] |
| CCCCOC(=O)c1ccc(N)cc1 | inactive |
| O=C(NCc1c(Cl)cccc1Oc1ccccc1)c1ccccc1 | inconclusive: 29.1 µM [falling, single point] |
| N#Cc1c(C(F)(F)F)cc(-c2cccs2)nc1SCc1ccc(F)cc1 | inactive |
| CCOC(=O)/C(C#N)=C/c1cc(C)n(-c2ccc(C)cc2)c1C | inconclusive: 1.84 µM [activator, partial curve] |

Reformatted: 2 of the compounds above.
Compound | Potency
CC1Cc2ccccc2N1C(=O)CSc1nc2ccc(NC(=O)COc3ccccc3)cc2s1 (centres undefined) | inconclusive: 4.61 µM [falling, partial curve, poor fit]
N#Cc1c(C(F)(F)F)cc(-c2cccs2)nc1SCc1ccc(F)cc1 | inactive

From PubChem BioAssay AID504444 (National Center for Advancing Translational Sciences (NCATS), 2011)
